Literature values in US20150239832A1, “ANALOGS AND PRODRUGS OF LOOP DIURETICS, INCLUDING BUMETANIDE, FUROSEMIDE AND PIRETANIDE; COMPOSITIONS AND METHODS OF USE” (Neuro Pro Therapeutics, Inc., priority 2012, published 2015).

What was measured:
[1] = tested on: NKCC1 over KCC2
[2] = tested on: rats; conditions: whole animal studies in rats

For `NS(=O)(=O)c1cc(C(=O)O)c(NCc2ccco2)cc1Cl` [furosemide], the “affinity for NKCC1 relative to KCC2” value [1] is given as “significantly greater affinity for NKCC1 over KCC2” and the “effect on kainic acid status” value [2] is given as “blocks kainic acid status”.
